Experimental data reported in PubChem BioAssay AID901 (National Center for Advancing Translational Sciences (NCATS), 2007).
The other results are listed elsewhere or left out. Shown are side measurements of this screen, not its main read-out; they come without a call. Compounds called inactive in the main read-out are mostly missing here. The note in brackets gives the kind of curve behind each potency; many fits are weak.

Experiment: qHTS Assay for Identifying the Cell-Membrane Permeable IMPase Inhibitors
Conditions: CHO-M1 cells, IP1 accumulation, HTRF TR-FRET ratio; measured here: donor channel 620 nm AC50
In the case of `Cc1cc(C)cc(N(CC(=O)NCC2CCCO2)C(=O)CN2C(=O)COc3ccccc32)c1` (stereo not given), the AC50 is reported as 2 µM [falling, full curve, poor fit].
For `CC1CN(C(=O)CCc2ccccc2)C(C)CN1C(=O)CCc1ccccc1` (stereo not given), the AC50 was 12.6 µM [rising, partial curve, poor fit].
With `O=C(Nc1ccc2oc(-c3ccccc3)nc2c1)c1cccs1` the AC50 was 0.2 µM [falling, full curve].
In the case of `Cc1nc2scc(-c3cccs3)c2c(=O)o1`, the AC50 is reported as 0.0501 µM [falling, full curve].
For `Cc1ccc(-c2cc(-c3ccccc3)c(C#N)c(Br)n2)cc1`, the AC50 was 22.4 µM [rising, partial curve].
In the case of `O=C(CSc1nnc(-c2ccccc2)o1)N1CCN(c2ccccc2)CC1`, the AC50 is reported as 3.16 µM [rising, single point].
In the case of `Cc1ccc(S(N)(=O)=O)cc1NC(=O)/C=C/c1cccs1`, the AC50 is reported as 31.6 µM [falling, single point].
In the case of `O=C(N/N=C/c1ccc(O)cc1)c1ccc(NC(=O)c2ccccc2Br)cc1`, the AC50 is reported as 2.51 µM [falling, single point].
In the case of `CCn1c2c(c3cc(Br)ccc31)CCC/C2=N\O`, the AC50 is reported as 12.6 µM [rising, partial curve].
For `COC(=O)C1=C(C)NC(C)=C([N+](=O)[O-])[C@H]1c1ccccc1C(F)(F)F`, the AC50 was 0.00251 µM [falling, full curve, poor fit].
With `CCOc1ccccc1CNC(=O)C1CCC(=O)N1C(C)C` (stereo not given) the AC50 was 0.631 µM [rising, single point].
For `CCOc1ccc(-c2cn(CCC#N)cn2)cc1`, the AC50 was 0.01 µM [rising, full curve, poor fit].
In the case of `CCOc1cccc(NC(=O)CSc2ncc(-c3ccccc3)[nH]2)c1`, the AC50 is reported as 0.00316 µM [rising, full curve, poor fit].
In the case of `CCOC(=O)c1c(C)[nH]c(=S)c(C#N)c1-c1ccc(OC)cc1`, the AC50 is reported as 0.126 µM [falling, full curve, poor fit].
In the case of `O=C(Cn1ncc2c3ccccc3n(Cc3ccccc3)c2c1=O)N1CCN(c2ncccn2)CC1`, the AC50 is reported as 1.58 µM [falling, full curve, poor fit].
For `COc1ccc(Cl)cc1-c1n[nH]c(=S)o1`, the AC50 was 12.6 µM [rising, partial curve].
With `C=CCN(CC=C)S(=O)(=O)c1ccc(NC(=S)NC(=O)/C=C/c2ccccc2)cc1` the AC50 was 0.794 µM [rising, single point].
With `Cc1oc(-c2ccccc2F)nc1CS(=O)(=O)CC(=O)N1CCOCC1` the AC50 was 35.5 µM [rising, single point].
In the case of `CCOC(=O)N1CCN(C(=O)C2CCCN(S(=O)(=O)c3cc(C)ccc3OC)C2)CC1` (stereo not given), the AC50 is reported as 0.0355 µM [falling, full curve, poor fit].
With `O=c1oc(-c2ccccc2)nc2c1cnn2-c1ccccc1` the AC50 was 1.12 µM [falling, full curve].
In the case of `Cc1nn(Cc2ccccc2Cl)c(C)c1NC(=O)CCCn1nc([N+](=O)[O-])c(Cl)c1C`, the AC50 is reported as 0.2 µM [falling, full curve, poor fit].
For `Cc1ccc(OCC(=O)NC(=S)Nc2ccc(Br)c(C)n2)cc1`, the AC50 was 0.398 µM [falling, full curve, poor fit].
In the case of `O=C(CN1C2=NCCN2c2ccccc21)N1CCOCC1`, the AC50 is reported as 0.251 µM [falling, full curve, poor fit].
For `Cc1ccc(S(=O)(=O)NCC(=O)OCC(=O)c2ccc(Br)s2)cc1`, the AC50 was 15.8 µM [rising, partial curve].
With `OCCN(CCO)CC(O)COCCC12CC3CC(CC(C3)C1)C2` (stereo not given) the AC50 was 12.6 µM [falling, partial curve, poor fit].
In the case of `CCCCn1c(SCC(=O)Nc2cc(C)[nH]n2)nc2ccsc2c1=O`, the AC50 is reported as 6.31 µM [rising, single point].
With `O=C(CSc1ccc2nnc(-c3ccc(Cl)cc3)n2n1)N1CCCc2ccccc21` the AC50 was 15.8 µM [rising, partial curve].
With `CC(=O)N=c1sc2nc3ccccc3nc2n1N(C(C)=O)C(C)=O` the AC50 was 10 µM [rising, partial curve].
In the case of `O=C1c2cnc3nc(SCc4ccc(Cl)cc4)nn3c2CC2c3ccccc3CCN12` (stereo not given), the AC50 is reported as 0.02 µM [rising, full curve, poor fit].
With `Cc1cccc(N2CN=c3s/c(=C\c4ccncc4)c(=O)n3C2)c1` the AC50 was 10 µM [falling, partial curve].
In the case of `Cc1cc(NC(=O)CSc2nc3c(c(=O)n(C)c(=O)n3C)n2C(C)C)no1`, the AC50 is reported as 0.00316 µM [falling, full curve, poor fit].
With `CCOC(=O)c1ccc(NC(=O)Cn2cc(C(=O)c3cccs3)c3ccccc32)cc1` the AC50 was 0.251 µM [falling, full curve, poor fit].
In the case of `O=c1oc2c(O)c(O)cc3c(=O)oc4c(O)c(O)cc1c4c23`, the AC50 is reported as 15.8 µM [falling, partial curve].
For `COc1ccc(NC(=O)CN2CCC3(O)CCCCC3C2c2cc(OC)ccc2OC)cc1` (stereo not given), the AC50 was 0.0251 µM [rising, full curve, poor fit].
In the case of `COC(=O)c1ccc2c(=O)n(Cc3ccco3)c(SCC(=O)Nc3ccc(C)c(Cl)c3)nc2c1`, the AC50 is reported as 25.1 µM [rising, single point].
With `O=C(CNS(=O)(=O)c1ccc2ccccc2c1)OCC(=O)c1ccc(Br)s1` the AC50 was 12.6 µM [rising, single point].
For `COc1ccc(CNC(=O)c2c(O)c3ccccc3n(C)c2=O)cc1OC`, the AC50 was 31.6 µM [rising, single point].
In the case of `CCOC(=O)c1c(-c2cccc(C)c2)csc1NC(=O)C1CC=CCC1C(=O)O` (stereo not given), the AC50 is reported as 31.6 µM [falling, single point].
With `COc1ccc(OC)c(NC(=O)Cn2cc(C(=O)c3ccco3)c3ccccc32)c1` the AC50 was 6.31 µM [falling, single point].
For `COc1ccc(Oc2nccc(-c3ccc(F)cc3)c2C#N)cc1`, the AC50 was 31.6 µM [rising, single point].
In the case of `CCCC(=O)N(Cc1cc2cccc(C)c2[nH]c1=O)c1ccccc1OC`, the AC50 is reported as 1 µM [falling, full curve, poor fit].
For `CCN(C(=O)COC(=O)c1cc2ccccc2cc1O)C1CCS(=O)(=O)C1` (stereo not given), the AC50 was 0.00794 µM [rising, full curve, poor fit].
In the case of `Cc1ccc(N(C(=O)Cn2nnc3ccccc32)C(C(=O)NCc2ccco2)c2cccnc2)cc1` (stereo not given), the AC50 is reported as 3.16 µM [falling, single point].
For `COC(=O)C1=C(N)Oc2cc(C)n(Cc3cccnc3)c(=O)c2C1c1ccccc1OC` (stereo not given), the AC50 was 10 µM [falling, single point].
In the case of `O=C(O)C1CCCCC1C(=O)N1CC=C(c2ccccc2)CC1` (stereo not given), the AC50 is reported as 0.158 µM [rising, full curve, poor fit].
In the case of `CCCONC(=O)Nc1ccccc1[N+](=O)[O-]`, the AC50 is reported as 0.0708 µM [rising, full curve, poor fit].
For `COc1cccc(NC(=O)Cn2cc(C(=O)C3CCCCC3)c3ccccc32)c1`, the AC50 was 35.5 µM [rising, single point].
With `CCOC(=O)C1CCCN(CC(O)COc2ccc(OC)cc2C(C)(C)C)C1` (stereo not given) the AC50 was 5.01 µM [rising, single point].
In the case of `COc1cccc(NC(=O)c2sc3nc(N4CCOCC4)c4c(c3c2N)CC(C)(C)OC4)c1`, the AC50 is reported as 35.5 µM [rising, single point].
With `O=C(Nc1nnc(C23CC4CC(CC(C4)C2)C3)s1)c1ccc(N2C(=O)CCC2=O)cc1` the AC50 was 0.158 µM [falling, full curve, poor fit].
For `O=C(O)CCC(=O)N1CCN(c2nc(-c3ccccc3Cl)c3cc(Br)ccc3n2)CC1`, the AC50 was 31.6 µM [rising, single point].
With `COc1ccc(CCNC(=O)CSc2nc3cc(Cl)ccc3o2)cc1OC` the AC50 was 31.6 µM [falling, single point].
In the case of `O=C(C1CC1)N1CCc2cc(Br)cc(S(=O)(=O)NCc3ccccn3)c21`, the AC50 is reported as 1.12 µM [falling, full curve, poor fit].
With `CC(NC(=O)C(Cc1ccccc1)NC(=O)c1ccccc1)C(=O)O` (stereo not given) the AC50 was 0.794 µM [falling, full curve, poor fit].
For `CC(=O)N1CCc2c(sc(NC(=O)c3ccc4c(c3)OCCO4)c2C#N)C1`, the AC50 was 31.6 µM [rising, single point].
With `Cc1ccc(-c2nc(-c3cccnc3)no2)cc1` the AC50 was 1 µM [falling, single point].
With `COc1ccc(Cl)cc1NC(=O)CC(C)=O` the AC50 was 0.398 µM [rising, full curve, poor fit].
For `COc1cccc(-c2csc(N3CCN(C(=S)Nc4ccccc4Cl)CC3)n2)c1`, the AC50 was 6.31 µM [falling, partial curve, poor fit].
In the case of `COc1cc(/C=N/Nc2ccc3ccccc3c2)ccc1OC(=O)c1ccco1`, the AC50 is reported as 5.62 µM [rising, single point].
With `Cc1ccc(S(=O)(=O)N2CCN(CC(=O)N/N=C\c3ccc(Cl)c([N+](=O)[O-])c3)CC2)cc1` the AC50 was 35.5 µM [rising, partial curve].
In the case of `Cc1cc(C2C(=O)CC(=O)CC2c2ccccc2)on1` (stereo not given), the AC50 is reported as 31.6 µM [falling, single point].
In the case of `COc1ccccc1OCC(=O)NC1CCCCCC1`, the AC50 is reported as 0.02 µM [rising, full curve, poor fit].
For `Cc1cc(=O)oc2c(CN(C)Cc3ccccc3)c(O)ccc12`, the AC50 was 20 µM [rising, single point].
For `COc1ccc(NC(=O)CN2CCN(c3ccc(F)cc3)CC2)cc1Cl`, the AC50 was 0.0126 µM [rising, full curve, poor fit].
In the case of `CCCc1cc(=O)n2[nH]c(NCc3ccccc3F)nc2n1`, the AC50 is reported as 0.126 µM [falling, full curve, poor fit].
